In publication PMC9646673, “A Novel, Orally Bioavailable, Small-Molecule Inhibitor of PCSK9 With Significant Cholesterol-Lowering Properties In Vivo” (Journal of Lipid Research, 2022):

Legend:
APOE∗3-Leiden.CETP mice [1] = experiment: Fecal bile acid and neutral sterol content, cholesterol balance; conditions: final week of 35-day study
APOE∗3-Leiden.CETP mice [2] = experiment: Second efficacy study: body weight, food intake, plasma ALT and AST; format: in vivo, mouse; conditions: group-pooled, NYX-PCSK9i 50 mg/kg BID PO, atorvastatin […]
From the text: (§1) Animal experiments were approved by the governmental central committee on animal experiments (AVD5010020172064) and TNO’s animal welfare body (TNO-471 and TNO-482). Female APOE∗3-Leiden.CETP transgenic mice (11–16 weeks of age) were bred at the animal facility of TNO-InnoSer (Leiden, The Netherlands). Female animals were used in this study as they are more responsive to dietary cholesterol and fat than males and therefore typically develop atherosclerosis more rapidly than male APOE∗3-Leiden and APOE∗3-Leiden.CETP mice on cholesterol-containing diets ([33], [34]). Although measurements of atherosclerosis were not included as part of the present study, females were used with the prospect in mind that atherosclerosis studies will follow. The mice were housed under standard conditions that included 12 h light-dark cycles and access to a WTD and sterilized tap water ad libitum. Body weight, food intake, and clinical signs of behavior were monitored throughout the studies. […] Time t = 0 (weeks) was designated as the time at which mice were matched into groups after the 3-week run-in period in each efficacy study.
(§2) In both studies, blood samples were collected at weekly intervals via tail vein sampling after fasting the mice for 4 h. Blood samples were centrifugated (4500 g at 4°C), and the plasma was collected for the following analyses. Total plasma cholesterol levels were determined using a Cholesterol CHOD-PAP kit according to the manufacturer’s instructions. Plasma HDL-C levels were determined by first precipitating apoB-containing lipids using PEG 6000/glycine and then utilizing the Cholesterol CHOD-PAP kit ([35]). Non-HDL-C levels were determined by subtracting HDL-C levels from total cholesterol levels ([32]). Group-pooled lipoprotein profiles were determined by FPLC analysis using an AKTApurifier 10 FPLC system (GE Healthcare, Chicago, IL). Plasma PCSK9 levels were determined using a Mouse PCSK9 Quantikine ELISA kit as per the manufacturer’s protocol. ALT and AST levels of group-pooled samples were measured using the Roche Reflotron Plus System (Mannheim, Germany).

APOE∗3-Leiden.CETP mice [3] = experiment: Second efficacy study (35 days, with atorvastatin): plasma lipids; format: in vivo, mouse
From the text: as §1, §2

[4] = day 0 (baseline), NYX-PCSK9i 50 mg/kg BID PO
[5] = day 14, NYX-PCSK9i 50 mg/kg BID PO
[6] = day 28, NYX-PCSK9i 50 mg/kg BID PO
[7] = day 35, NYX-PCSK9i 50 mg/kg BID PO

CC(C)c1c(C(=O)Nc2ccccc2)c(-c2ccccc2)c(-c2ccc(F)cc2)n1CC[C@@H](O)C[C@@H](O)CC(=O)O [atorvastatin, reference compound]
cholesterol balance (dietary cholesterol intake minus fecal bile acids and neutral sterols) (APOE∗3-Leiden.CETP mice [1]): negative | Plasma ALT (APOE∗3-Leiden.CETP mice [2]; day 0 (baseline)): 101 U/L | Plasma AST (APOE∗3-Leiden.CETP mice [2]; day 0 (baseline)): 101 U/L | Plasma ALT (APOE∗3-Leiden.CETP mice [2]; day 14): 90 U/L | Plasma AST (APOE∗3-Leiden.CETP mice [2]; day 14): 90 U/L | Plasma ALT (APOE∗3-Leiden.CETP mice [2]; day 28): 49 U/L | Plasma AST (APOE∗3-Leiden.CETP mice [2]; day 28): 49 U/L | Plasma ALT (APOE∗3-Leiden.CETP mice [2]; day 35): 57 U/L | Plasma AST (APOE∗3-Leiden.CETP mice [2]; day 35): 57 U/L | Plasma HDL-cholesterol (APOE∗3-Leiden.CETP mice [3]; [4]): 0.9 ± 0.2 mmol/L | Plasma non- HDL-cholesterol (APOE∗3-Leiden.CETP mice [3]; [4]): 14.7 ± 1.8 mmol/L | Plasma triglycerides (mean ± SD) (APOE∗3-Leiden.CETP mice [3]; [4]): 5.6 ± 2.3 mmol/L | Plasma triglycerides (mean ± SD) (APOE∗3-Leiden.CETP mice [3]; day 7, NYX-PCSK9i 50 mg/kg BID PO): 5.2 ± 2.0 mmol/L | Plasma HDL-cholesterol (APOE∗3-Leiden.CETP mice [3]; [5]): 1.1 ± 0.5 mmol/L | Plasma non- HDL-cholesterol (APOE∗3-Leiden.CETP mice [3]; [5]): 13.1 ± 2.2 mmol/L | Plasma triglycerides (mean ± SD) (APOE∗3-Leiden.CETP mice [3]; [5]): 5.9 ± 1.5 mmol/L | Plasma triglycerides (mean ± SD) (APOE∗3-Leiden.CETP mice [3]; day 21, NYX-PCSK9i 50 mg/kg BID PO): 4.9 ± 1.7 mmol/L | Plasma HDL-cholesterol (APOE∗3-Leiden.CETP mice [3]; [6]): 1.1 ± 0.5 mmol/L | Plasma non- HDL-cholesterol (APOE∗3-Leiden.CETP mice [3]; [6]): 12.8 ± 1.6 mmol/L | Plasma triglycerides (mean ± SD) (APOE∗3-Leiden.CETP mice [3]; [6]): 5.1 ± 1.1 mmol/L | Plasma HDL-cholesterol (APOE∗3-Leiden.CETP mice [3]; [7]): 0.5 ± 0.1 mmol/L | Plasma non- HDL-cholesterol (APOE∗3-Leiden.CETP mice [3]; [7]): 15.3 ± 1.9 mmol/L | Plasma triglycerides (mean ± SD) (APOE∗3-Leiden.CETP mice [3]; [7]): 6.4 ± 1.6 mmol/L
